Reference: paper PMC5557982
No constants are given. Whether binding was seen depends on the method and setting. In cells and extracts the contact can be indirect. Some binding calls cover weakened binding; strength is not graded here.

Amino acid sequences for entries named in this document (tags omitted).
UniProt Q8C2K1: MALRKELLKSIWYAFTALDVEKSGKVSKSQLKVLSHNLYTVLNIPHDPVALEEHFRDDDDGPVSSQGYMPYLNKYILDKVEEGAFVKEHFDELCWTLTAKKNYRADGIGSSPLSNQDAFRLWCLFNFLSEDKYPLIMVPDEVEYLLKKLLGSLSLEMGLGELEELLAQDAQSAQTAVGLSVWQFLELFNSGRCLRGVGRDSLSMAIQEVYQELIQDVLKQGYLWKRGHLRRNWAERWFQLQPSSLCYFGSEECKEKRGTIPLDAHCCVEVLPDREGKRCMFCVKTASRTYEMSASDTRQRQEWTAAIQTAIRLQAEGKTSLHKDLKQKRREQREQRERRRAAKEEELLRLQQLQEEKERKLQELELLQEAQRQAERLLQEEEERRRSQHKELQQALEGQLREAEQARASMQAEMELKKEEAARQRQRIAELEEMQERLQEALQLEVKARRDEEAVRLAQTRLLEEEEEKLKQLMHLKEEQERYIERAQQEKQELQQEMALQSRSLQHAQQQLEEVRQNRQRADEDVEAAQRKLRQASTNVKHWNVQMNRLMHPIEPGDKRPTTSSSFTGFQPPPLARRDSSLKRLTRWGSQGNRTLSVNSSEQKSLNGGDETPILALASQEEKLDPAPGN
UniProt Q8N122: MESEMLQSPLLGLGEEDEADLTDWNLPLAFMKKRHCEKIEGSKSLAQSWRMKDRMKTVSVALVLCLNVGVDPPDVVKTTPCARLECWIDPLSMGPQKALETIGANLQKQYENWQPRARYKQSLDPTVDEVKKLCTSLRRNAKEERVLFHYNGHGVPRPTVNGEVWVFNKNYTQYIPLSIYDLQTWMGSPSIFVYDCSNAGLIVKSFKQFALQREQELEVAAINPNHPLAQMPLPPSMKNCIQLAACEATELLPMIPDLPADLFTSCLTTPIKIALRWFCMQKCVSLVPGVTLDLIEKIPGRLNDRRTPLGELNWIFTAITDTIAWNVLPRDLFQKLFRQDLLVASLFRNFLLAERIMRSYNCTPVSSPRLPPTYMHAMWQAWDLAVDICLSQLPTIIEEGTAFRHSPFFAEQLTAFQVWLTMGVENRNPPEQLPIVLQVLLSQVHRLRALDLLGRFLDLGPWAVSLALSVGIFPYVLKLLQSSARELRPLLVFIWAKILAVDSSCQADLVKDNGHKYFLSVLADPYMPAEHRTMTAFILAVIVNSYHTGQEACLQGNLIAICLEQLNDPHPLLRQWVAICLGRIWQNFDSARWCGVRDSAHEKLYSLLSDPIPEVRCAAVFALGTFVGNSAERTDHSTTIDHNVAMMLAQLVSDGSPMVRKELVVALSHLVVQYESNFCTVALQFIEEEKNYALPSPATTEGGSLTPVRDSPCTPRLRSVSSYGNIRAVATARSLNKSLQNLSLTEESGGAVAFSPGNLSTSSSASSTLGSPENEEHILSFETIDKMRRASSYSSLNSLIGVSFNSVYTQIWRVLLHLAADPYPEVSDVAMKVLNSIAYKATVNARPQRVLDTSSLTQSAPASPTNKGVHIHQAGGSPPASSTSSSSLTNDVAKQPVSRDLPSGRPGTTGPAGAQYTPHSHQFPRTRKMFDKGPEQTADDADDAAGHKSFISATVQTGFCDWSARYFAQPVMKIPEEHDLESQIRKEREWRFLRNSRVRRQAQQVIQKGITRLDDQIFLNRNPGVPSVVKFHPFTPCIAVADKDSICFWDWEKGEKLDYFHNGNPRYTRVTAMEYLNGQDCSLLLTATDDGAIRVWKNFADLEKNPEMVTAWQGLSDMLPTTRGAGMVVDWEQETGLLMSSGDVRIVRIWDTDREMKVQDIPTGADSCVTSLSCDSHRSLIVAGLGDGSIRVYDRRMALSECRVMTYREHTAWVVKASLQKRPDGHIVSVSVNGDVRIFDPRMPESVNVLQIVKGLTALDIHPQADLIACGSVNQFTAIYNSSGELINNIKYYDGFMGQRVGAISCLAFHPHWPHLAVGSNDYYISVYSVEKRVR

Experiments:
[1] = target: T1, TRAF6 (endogenous, mouse T cells) (mouse (endogenous in T cells)) (UniProt P70196); experiment: co-IP; endogenous proteins; whole-cell extracts of wt mouse T cells; immunoprecipitation with anti-Raptor, anti-p62 or anti-TRAF6, western blotting
T1 sequence: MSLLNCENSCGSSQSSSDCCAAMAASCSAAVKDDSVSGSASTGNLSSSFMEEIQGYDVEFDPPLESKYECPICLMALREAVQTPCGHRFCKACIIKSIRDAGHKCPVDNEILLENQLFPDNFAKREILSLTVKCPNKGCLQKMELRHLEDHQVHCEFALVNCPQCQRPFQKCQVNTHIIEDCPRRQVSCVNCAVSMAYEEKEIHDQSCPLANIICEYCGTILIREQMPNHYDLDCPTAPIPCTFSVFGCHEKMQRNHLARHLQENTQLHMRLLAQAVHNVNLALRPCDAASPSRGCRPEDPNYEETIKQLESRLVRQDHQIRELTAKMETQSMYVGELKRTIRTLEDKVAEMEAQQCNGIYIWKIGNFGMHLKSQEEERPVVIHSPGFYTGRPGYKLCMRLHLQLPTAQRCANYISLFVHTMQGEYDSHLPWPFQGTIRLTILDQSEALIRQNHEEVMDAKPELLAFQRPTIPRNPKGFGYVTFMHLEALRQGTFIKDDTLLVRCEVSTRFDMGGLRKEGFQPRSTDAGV

[2] = target: p62 (endogenous, mouse T cells) (mouse (endogenous in T cells)) (UniProt Q64337); experiment: as above
HA-tagged p62 = HA-tagged p62 (UniProt Q13501); experiment: co-IP; 293T cells cotransfected with tagged constructs, with or without Def6 expression vector; cell extracts immunoprecipitated with anti-HA, western blotting
HA-tagged Def6 = HA-tagged Def6 (UniProt Q9H4E7); experiment: as above

Which binding [1] does the source give for “Def6 (endogenous, mouse T cells) (from UniProt Q8C2K1 1-630)” here?
The binding was “binds”.

What about the binding [2] of the same substance?
The binding was “binds”.

For “Def6 (untagged, expression vector) (from UniProt Q9H4E7 1-631)”, which binding (HA-tagged p62) is on record?
Its binding is “binds”.

“Myc-tagged raptor (from UniProt Q8N122 1-1335)” was tested. Which binding (HA-tagged Def6) did it give?
Its binding is “no binding”.
